PubChem BioAssay AID1159578, Peter MacCallum Cancer Centre, 2015
Aim: 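Genome-wide hunt for genes controlling movement of lymphatic endothelial cells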 (primary screen). Cells: human lymphatic endothelial cells. Reagent: siRNA pool against human genes, 40 nM. Time to read-out: 48 h after transfection. Measurement: 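Cells stained with dye and imaged after a scratch; covered wound area and nuclei counted, duplicates averaged, migration set against mock wells and turned into a robust z-score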. Reading the numbers: migration robust z-score: higher = faster migration into the scratch; nuclei per well: higher = more cells in the well. Hit rule: 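Pools averaging fewer than 3300 nuclei are never called; remaining pools count as changed when migration robust z lies outside -2 to 2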. Meaning of the calls: active = migration changed; inactive = no migration change, or too few cells.
The whole screen tested about 18,000 reagents; shown is an unselected part. About 1,030 of them (5.7%) were called active. 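Inactive calls also include pools with fewer than 3300 nuclei, whose migration was not assessed.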 Raw values are not corrected between plates. A number with no mark means an inactive call. Not all columns of the deposit are shown.

Silencing of ELMOD1 (GeneID 55531) [SID255358674] resulted in: migration robust z-score -0.46; migration class with cell-count check migration z between -2 and 2; enough cells; nuclei per well, duplicate mean 5436. With knock-down of ELMOD1 (GeneID 55531) [SID255366090] the results were migration robust z-score -0.11; migration class with cell-count check migration z between -2 and 2; enough cells; nuclei per well, duplicate mean 5459. Silencing of TTC1 (GeneID 7265) [SID255352990] gave: migration robust z-score 0.76; migration class with cell-count check migration z between -2 and 2; enough cells; nuclei per well, duplicate mean 4886. PIK3C2G (GeneID 5288) [SID255351579] showed migration robust z-score -0.76; migration class with cell-count check migration z between -2 and 2; enough cells; nuclei per well, duplicate mean 4346. For ADNP2 (GeneID 22850) [SID255355816], the entry reads migration robust z-score -3.31 (active); migration class with cell-count check migration z below -2; enough cells; nuclei per well, duplicate mean 4694. Depletion of ASPSCR1 (GeneID 79058) [SID255360190] resulted in: migration robust z-score 0.3; migration class with cell-count check migration z between -2 and 2; enough cells; nuclei per well, duplicate mean 6003.

An excerpt from above, limited to “nuclei per well, duplicate mean”:
TTC1 (GeneID 7265) [SID255352990] = 4886
PIK3C2G (GeneID 5288) [SID255351579] = 4346

Continued:
Against P2RY12 (GeneID 64805) [SID255360014], the values are migration robust z-score 0.21; migration class with cell-count check migration z between -2 and 2; enough cells; nuclei per well, duplicate mean 5744. For URGCP (GeneID 55665) [SID255358761] the deposit lists migration robust z-score -0.55; migration class with cell-count check migration z between -2 and 2; enough cells; nuclei per well, duplicate mean 5987. Against CDC37 (GeneID 11140) [SID255355623], the values are migration robust z-score 0.58; migration class with cell-count check migration z between -2 and 2; enough cells; nuclei per well, duplicate mean 5912. With knock-down of NR1I3 (GeneID 9970) [SID255354708], the screen gave migration robust z-score -0.34; migration class with cell-count check migration z between -2 and 2; enough cells; nuclei per well, duplicate mean 4920. Against PDS5B (GeneID 23047) [SID255355952] the deposit lists migration robust z-score -0.13; migration class with cell-count check migration z between -2 and 2; enough cells; nuclei per well, duplicate mean 5796. Depletion of AKAP8 (GeneID 10270) [SID255354953] came out at: migration robust z-score -0.42; migration class with cell-count check migration z between -2 and 2; enough cells; nuclei per well, duplicate mean 5202.
